# Measurements from the supplement of paper PMC9015667.
# The other results are listed elsewhere or left out. Many values rest on one well or one pass, so single values are uncertain.
# Tested on: M249P (parental melanoma line)
# Test: reduction in cell viability relative to untreated/vehicle; higher = more growth inhibition
# Settings: 200 nM; 72 h
row,Compound,reduction in cell viability [%]
1,Cc1c(C)n(Cc2ccc(-c3ccccc3C(=O)O)cc2)c2ccc(C(=O)N[C@@H](C)c3ccc([N+](=O)[O-])cc3)cc12,< 0
2,O=c1cc(CN2CCOCC2)occ1OCCCCCSc1ccnc2cc(C(F)(F)F)ccc12,< 0
3,O=c1ncn2nc(Sc3ccc(F)cc3F)ccc2c1-c1c(Cl)cccc1Cl,< 0
4,CO[C@H]1/C=C/O[C@@]2(C)Oc3c(C)c(O)c4c(c3C2=O)C2=NC3(CCN(CC(C)C)CC3)NC2=C(NC(=O)/C(C)=C\C=C\[C@H](C)[C@H](O)[C@@H](C)[C@@H](O)[C@@H](C)[C@H](OC(C)=O)[C@@H]1C)C4=O [Rifabutin],< 0
5,O=C(O)C1=CO[C@@H](O[C@@H]2O[C@H](CO)[C@@H](O)[C@H](O)[C@H]2O)[C@@H]2C(CO)=CC[C@H]12 [Geniposidic acid],< 0
6,O=c1c(-c2ccc(O)cc2)coc2cc(O)cc(O)c12 [Genistein],< 0
7,CC(CCc1ccc(O)cc1)NCCc1ccc(O)c(O)c1 (stereo unspecified) [Dobutamine],< 0
8,C=C1C(=O)[C@]23[C@H](O)[C@H]1CC[C@H]2[C@@]12CO[C@]3(O)[C@@H](O)[C@@H]1C(C)(C)CC[C@@H]2O [Oridonin],< 0
9,CC(C)OC(=O)C(C(=O)OC(C)C)=C1SC=CS1 [Malotilate],< 0
10,COc1cc2c(cc1-c1c(C)noc1C)ncc1[nH]c(=O)n([C@H](C)c3ccccn3)c12,< 0
11,Oc1ccc([C@@H]2Oc3ccc(O)cc3[C@@H]3CCC[C@@H]32)cc1 [Erteberel],< 0
